Measurements taken from PMC4466657.
These are yes or no findings as the source states them, for the method shown. In cells and extracts the contact can be indirect. Some entries that bind do so weakly or less than the wild type.

Amino acid sequences for entries named in this document (tags omitted).
UniProt O95863: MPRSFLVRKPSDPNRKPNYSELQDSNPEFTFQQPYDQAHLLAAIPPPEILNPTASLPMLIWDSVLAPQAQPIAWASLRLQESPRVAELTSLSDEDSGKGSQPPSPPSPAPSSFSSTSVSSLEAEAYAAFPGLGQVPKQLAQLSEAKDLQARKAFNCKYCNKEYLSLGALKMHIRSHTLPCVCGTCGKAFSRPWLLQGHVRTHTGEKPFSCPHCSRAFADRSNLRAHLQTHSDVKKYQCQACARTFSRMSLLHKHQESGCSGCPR
UniProt Q96KQ7: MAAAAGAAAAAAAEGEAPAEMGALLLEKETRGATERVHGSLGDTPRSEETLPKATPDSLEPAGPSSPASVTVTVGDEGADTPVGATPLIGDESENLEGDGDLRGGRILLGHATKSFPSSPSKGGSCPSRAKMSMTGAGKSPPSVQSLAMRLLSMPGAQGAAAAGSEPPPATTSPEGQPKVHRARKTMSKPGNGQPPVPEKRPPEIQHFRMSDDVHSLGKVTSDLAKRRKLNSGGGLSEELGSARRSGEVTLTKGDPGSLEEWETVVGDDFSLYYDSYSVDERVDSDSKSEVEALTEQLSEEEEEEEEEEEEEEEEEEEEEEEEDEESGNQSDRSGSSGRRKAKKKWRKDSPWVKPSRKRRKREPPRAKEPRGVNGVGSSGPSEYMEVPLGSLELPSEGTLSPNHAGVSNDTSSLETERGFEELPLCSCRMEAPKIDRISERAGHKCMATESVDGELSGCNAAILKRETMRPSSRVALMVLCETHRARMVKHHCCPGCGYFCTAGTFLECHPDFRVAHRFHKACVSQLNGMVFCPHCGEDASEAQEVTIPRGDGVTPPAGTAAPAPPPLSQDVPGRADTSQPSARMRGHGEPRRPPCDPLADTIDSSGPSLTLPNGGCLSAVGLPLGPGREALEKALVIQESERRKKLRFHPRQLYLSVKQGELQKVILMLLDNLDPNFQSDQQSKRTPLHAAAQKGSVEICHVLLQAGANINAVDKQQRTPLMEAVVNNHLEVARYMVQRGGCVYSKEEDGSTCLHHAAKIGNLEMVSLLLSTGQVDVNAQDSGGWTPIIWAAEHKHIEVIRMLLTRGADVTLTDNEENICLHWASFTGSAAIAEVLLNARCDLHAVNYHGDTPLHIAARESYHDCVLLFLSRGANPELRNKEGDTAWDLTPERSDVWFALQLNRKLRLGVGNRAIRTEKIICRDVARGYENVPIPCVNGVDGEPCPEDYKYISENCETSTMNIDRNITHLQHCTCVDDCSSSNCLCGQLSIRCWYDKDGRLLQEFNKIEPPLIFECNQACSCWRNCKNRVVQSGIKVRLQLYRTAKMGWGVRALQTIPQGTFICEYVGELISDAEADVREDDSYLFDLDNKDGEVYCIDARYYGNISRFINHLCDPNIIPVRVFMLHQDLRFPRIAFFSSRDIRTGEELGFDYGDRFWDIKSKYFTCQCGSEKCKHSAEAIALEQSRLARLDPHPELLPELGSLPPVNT

Key:
GFP-tagged Snail (human) = GFP-tagged Snail (human) (UniProt O95863); assay: co-IP; HEK293T cells transiently transfected with Flag-tagged G9a and GFP-tagged Snail; cell extracts immunoprecipitated with Flag or GFP antibodies, Western blot
Flag-tagged G9a = Flag-tagged G9a (UniProt Q96KQ7); assay: as above
[1] = molecular target: endogenous G9a (HN12 cells) (human (endogenous in HN12)) (UniProt Q96KQ7); assay: co-IP; endogenous Snail and G9a immunoprecipitated from HN12 cells, Western blot

Substance: Flag-tagged G9a (from UniProt Q96KQ7 1-1210) (enzyme)
- binding (GFP-tagged Snail (human)): binds

Substance: GFP-tagged Snail (from UniProt O95863 1-264)
- binding (Flag-tagged G9a): binds

Substance: endogenous Snail (HN12 cells) (from UniProt O95863 1-264)
- binding [1]: binds
